No constants are given. Whether binding was seen depends on the method and setting.
Molecular target: Arabidopsis ACC oxidase 2 (AtACO2^1-303) (Arabidopsis thaliana) (UniProt Q41931)
Assay: SEC; gel filtration analyses of AtACO2 in solution (Supplementary Fig. 14); both purified

Protein sequences, listed by entry. Tags and fused reporters are not part of them. Residues count along the entry.
UniProt Q41931, residues 1-303: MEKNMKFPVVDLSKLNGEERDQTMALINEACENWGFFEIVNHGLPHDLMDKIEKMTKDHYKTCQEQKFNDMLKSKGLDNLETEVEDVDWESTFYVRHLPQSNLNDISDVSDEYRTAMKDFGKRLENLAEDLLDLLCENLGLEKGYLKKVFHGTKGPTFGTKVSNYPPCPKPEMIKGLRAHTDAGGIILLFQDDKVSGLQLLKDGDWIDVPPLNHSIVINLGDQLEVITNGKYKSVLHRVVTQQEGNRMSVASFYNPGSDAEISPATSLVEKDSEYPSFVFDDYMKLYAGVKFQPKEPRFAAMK

For “Arabidopsis ACC oxidase 2 (AtACO2^1-303) (from UniProt Q41931 1-303) (enzyme)”, the binding was “no binding”.
